Assay results taken from US20260274937A1.
Numbering of substitutions follows the chain as printed. These are yes or no findings as the source states them, for the method shown. Some binding calls cover weakened binding; strength is not graded here. Values belong to the binder of their own block, whether it stands above or below them.

Sequences of proteins named here, by UniProt entry; tags and fusion partners are left off. A change or cut given only in a name is not applied to a line headed by its entry. A line that says so, or that is headed by a name, gives the form on record, which may keep a tag or linker. Residues count along the entry.
UniProt O15123: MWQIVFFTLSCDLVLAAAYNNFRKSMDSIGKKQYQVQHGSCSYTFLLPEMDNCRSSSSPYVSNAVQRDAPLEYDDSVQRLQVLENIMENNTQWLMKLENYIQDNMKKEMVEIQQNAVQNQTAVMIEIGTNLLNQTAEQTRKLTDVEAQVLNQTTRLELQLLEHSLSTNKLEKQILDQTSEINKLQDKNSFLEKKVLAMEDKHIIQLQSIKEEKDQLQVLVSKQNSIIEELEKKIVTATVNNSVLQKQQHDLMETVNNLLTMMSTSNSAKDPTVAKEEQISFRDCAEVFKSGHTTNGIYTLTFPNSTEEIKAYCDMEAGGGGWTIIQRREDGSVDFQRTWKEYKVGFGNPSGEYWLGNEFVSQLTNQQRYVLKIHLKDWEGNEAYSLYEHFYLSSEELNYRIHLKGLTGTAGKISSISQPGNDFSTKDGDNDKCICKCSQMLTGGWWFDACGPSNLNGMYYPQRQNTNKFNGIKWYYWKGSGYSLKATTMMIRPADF
hAng2-Fc (Beijing Sino Biological, Catalog No. 10691-H02H): residues 19-496 of O15123
hAng2-biotin (R&D, Catalog No. BT623B/CF): residues 68-496 of O15123
biotin-labeled VEGF A165 (ACRO, Catalog No. VE5-H8210) (P15692, form named): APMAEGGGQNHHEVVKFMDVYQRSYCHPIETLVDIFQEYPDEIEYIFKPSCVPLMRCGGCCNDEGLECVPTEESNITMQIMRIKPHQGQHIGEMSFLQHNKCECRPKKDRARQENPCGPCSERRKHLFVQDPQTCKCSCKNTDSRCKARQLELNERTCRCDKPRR

Assays:
[1] = target: hAng2-biotin (R&D, Catalog No. BT623B/CF) (human) (UniProt O15123); assay: blocking ELISA: Tie2-Fc coated, Ang2-Bio (R&D) in solution
[2] = target: hAng2-biotin (R&D, Catalog No. BT623B/CF) (human) (UniProt O15123); assay: Blocking ELISA: Tie2-Fc coated, hAng2-biotin pre-incubated with the antibody, Avidin HRP, OD450-OD620
[3] = target: hAng2-biotin (R&D, Catalog No. BT623B/CF) (human) (UniProt O15123); assay: blocking ELISA: Tie2-Fc coated, Ang2-biotin in solution
[4] = target: hAng2-Fc (Beijing Sino Biological, Catalog No. 10691-H02H) (human) (UniProt O15123); assay: condition: about log 2.6 on the axis Conc log(nM) (400 nM maximum final concentration per paragraph 212); Flow cytometry blocking: hAng2-Fc pre-incubated with the antibody, 293-Tie2 cells, Mean-PE-A
[5] = target: hAng2-Fc (Beijing Sino Biological, Catalog No. 10691-H02H) (human) (UniProt O15123); assay: condition: about log 2.6 on the axis Conc. log(nM) (400 nM maximum final concentration per paragraph 212); Flow cytometry blocking: hAng2-Fc pre-incubated with the antibody, 293-Tie2 cells, Mean PE-A
[6] = target: biotin-labeled VEGF A165 (ACRO, Catalog No. VE5-H8210) (human) (UniProt P15692); assay: condition: about log 2.2 on the axis Conc log(ug/ml) (150 ug/mL initial concentration per paragraph 172); Blocking ELISA: biotin-VEGF A165 captured, VEGFR-Fc as the blocked receptor, OD450nm
[7] = target: hAng2-biotin (R&D, Catalog No. BT623B/CF) (human) (UniProt O15123); assay: condition: about log 2.5 on the axis Conc. log(nM) (300 nM maximum per paragraph 208); Blocking ELISA: hTie2 coated, biotinylated hAng2 pre-incubated with the antibody, OD450-OD620
[8] = target: hAng2-biotin (R&D, Catalog No. BT623B/CF) (human) (UniProt O15123); assay: condition: about log 0.7 on the axis Conc log (ug/ml) (about 5 ug/ml); Blocking ELISA: Tie2-Fc coated, hAng2-biotin pre-incubated with the antibody, OD450-OD620
[9] = target: hAng2-Fc (Beijing Sino Biological, Catalog No. 10691-H02H) (human) (UniProt O15123); assay: flow cytometry blocking assay: hAng2-Fc on 293-Tie2 cells
[10] = target: hAng2-biotin (R&D, Catalog No. BT623B/CF) (human) (UniProt O15123); assay: blocking ELISA: hTie2 coated, biotinylated hAng2 in solution
[11] = target: hAng2-Fc (Beijing Sino Biological, Catalog No. 10691-H02H) (human) (UniProt O15123); assay: flow cytometry blocking assay (legend of FIGS. 10A-10B)
[12] = target: hAng2-biotin (R&D, Catalog No. BT623B/CF) (human) (UniProt O15123); assay: blocking ELISA (legend of FIGS. 9A-9B)

- binding [1]: binds
- binding [2]: binds
B1: LA24C11.10 (Ang2 VHH) (VHH)
VHH: EVQLLESGGGLVQPGGSLRLSCAASGFALDYYAIGWFRQAPGKGLEGVSCISSGEGSTYYADSVKGRFTISRDNSKNTVYLQMNSLRAEDTAVYYCATDSRGDDVACEGLRRNEYDYWGQGTLVTVSS

- binding [3]: binds
B2: LA24C11 (Ang2 VHH) (VHH)
VHH: B1 VHH with E1Q, L5V, G44E, L45R, E55D, S75A, R87K, A88P, L123Q

- binding [4]: no binding
- binding [5]: no binding
- binding [6]: no binding
- binding [7]: no binding
- binding [8]: no binding
B3: IgG (antibody, V domains shown)
VH: EVRLLESGGGLVQPGGSLRLSCAASGFTFSNYAMGWVRQAPGKGLEWVSAISGSGGSTYYADSVKGRFTTSRDDSKNALYLQMNSLRAEDTAVYYCARGGPGWYAADVWGQGTTVTVSS
VL: DIQMTQSPSSLSASVGDRVTITCRASQSISSYLNWYQQKPGKAPKLLIYAASSLQSGVPSRFSGSGSGTDFTLTISSLQPEDFATYYCQQADLPAFAFGGGTKVEIKR

- binding [9]: binds
- binding [10]: binds
- binding [11]: binds
- binding [12]: binds
B4: IEX04-008 (bispecific antibody)
chain: EVQLLESGGGLVQPGGSLRLSCAASGSIFSINAMGWHRQAPGKQRELVATMIGGSSTFYAESVQGRFTISRDNSKNTVYLQMNSLRAEDTAVYYCYADVTGRSGTSIWNKRDDYWGQGTQVTVSSGGGGSGGGGSEVQLLESGGGLVQPGGSLRLSCAASGSIFSINAMGWHRQAPGKQRELVATMIGGSSTFYAESVQGRFTISRDNSKNTVYLQMNSLRAEDTAVYYCYADVTGRSGTSIWNKRDDYWGQGTQVTVSSGGGGSGGGGSEVQLLESGGGLVQPGGSLRLSCAASGFALDYYAIGWFRQAPGKGLEGVSCISSGEGSTYYADSVKGRFTISRDNSKNTVYLQMNSLRAEDTAVYYCATDSRGDDVACEGLRRNEYDYWGQGTLVTVSS
